Experimental data reported in article PMC7199855, “GRAF2, WDR44, and MICAL1 mediate Rab8/10/11–dependent export of E-cadherin, MMP14, and CFTR ΔF508” (The Journal of Cell Biology, 2020).
Numbering of substitutions follows the chain as printed. Results are given in words; binding and its absence hold for the method and conditions named. For some of these results: In cells and extracts the contact can be indirect. Some entries that bind do so weakly or less than the wild type. Where a sequence is shown, tags or fusion partners need not be part of it.

Amino acid sequences for entries named in this document (tags omitted). A change or cut given only in a name is not applied to a line headed by its entry.
UniProt P62491: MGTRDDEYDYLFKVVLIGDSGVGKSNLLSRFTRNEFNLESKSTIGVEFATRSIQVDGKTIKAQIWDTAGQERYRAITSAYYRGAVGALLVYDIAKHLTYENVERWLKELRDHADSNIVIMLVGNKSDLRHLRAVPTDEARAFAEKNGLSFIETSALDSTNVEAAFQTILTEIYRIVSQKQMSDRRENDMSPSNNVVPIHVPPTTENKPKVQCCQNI
UniProt P61007: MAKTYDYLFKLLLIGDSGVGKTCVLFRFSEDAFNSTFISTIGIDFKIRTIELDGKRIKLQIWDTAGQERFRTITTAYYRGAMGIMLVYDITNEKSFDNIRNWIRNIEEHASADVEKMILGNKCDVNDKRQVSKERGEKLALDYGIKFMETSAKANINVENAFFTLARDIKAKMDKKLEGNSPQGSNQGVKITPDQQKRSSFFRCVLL
UniProt Q92930: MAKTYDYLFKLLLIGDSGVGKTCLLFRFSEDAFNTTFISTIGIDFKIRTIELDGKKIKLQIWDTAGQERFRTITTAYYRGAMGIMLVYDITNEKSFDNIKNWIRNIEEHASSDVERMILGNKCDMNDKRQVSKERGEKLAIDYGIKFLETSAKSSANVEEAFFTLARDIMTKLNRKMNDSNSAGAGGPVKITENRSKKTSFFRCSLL
UniProt O95292: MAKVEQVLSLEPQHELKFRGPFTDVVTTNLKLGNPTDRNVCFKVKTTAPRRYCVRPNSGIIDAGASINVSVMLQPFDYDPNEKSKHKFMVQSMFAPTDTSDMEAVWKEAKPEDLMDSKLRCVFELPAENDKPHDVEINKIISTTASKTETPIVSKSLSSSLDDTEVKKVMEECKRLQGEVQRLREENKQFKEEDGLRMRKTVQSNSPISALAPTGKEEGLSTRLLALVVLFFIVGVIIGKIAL
UniProt P61026: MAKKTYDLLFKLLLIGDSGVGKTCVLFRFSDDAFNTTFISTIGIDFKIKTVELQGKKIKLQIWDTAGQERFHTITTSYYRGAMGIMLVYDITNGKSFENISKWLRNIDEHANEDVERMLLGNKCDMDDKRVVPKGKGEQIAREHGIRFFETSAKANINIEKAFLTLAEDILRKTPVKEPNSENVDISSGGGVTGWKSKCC

T1: GFP-VAPA DD (human) (UniProt Q9P0L0)
T1 sequence: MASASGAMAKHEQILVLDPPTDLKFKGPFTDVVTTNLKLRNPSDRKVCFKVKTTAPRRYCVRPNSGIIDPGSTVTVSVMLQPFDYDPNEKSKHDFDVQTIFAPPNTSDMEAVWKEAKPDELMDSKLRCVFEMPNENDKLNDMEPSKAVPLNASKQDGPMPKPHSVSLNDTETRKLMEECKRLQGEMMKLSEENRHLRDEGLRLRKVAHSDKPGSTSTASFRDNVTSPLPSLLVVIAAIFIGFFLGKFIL

T2: GFP-VAPA (human) (UniProt Q9P0L0)
T2 sequence: T1 sequence with D94K, D96M

T3: GRAF2-GFP (human) (UniProt A1A4S6)
T3 sequence: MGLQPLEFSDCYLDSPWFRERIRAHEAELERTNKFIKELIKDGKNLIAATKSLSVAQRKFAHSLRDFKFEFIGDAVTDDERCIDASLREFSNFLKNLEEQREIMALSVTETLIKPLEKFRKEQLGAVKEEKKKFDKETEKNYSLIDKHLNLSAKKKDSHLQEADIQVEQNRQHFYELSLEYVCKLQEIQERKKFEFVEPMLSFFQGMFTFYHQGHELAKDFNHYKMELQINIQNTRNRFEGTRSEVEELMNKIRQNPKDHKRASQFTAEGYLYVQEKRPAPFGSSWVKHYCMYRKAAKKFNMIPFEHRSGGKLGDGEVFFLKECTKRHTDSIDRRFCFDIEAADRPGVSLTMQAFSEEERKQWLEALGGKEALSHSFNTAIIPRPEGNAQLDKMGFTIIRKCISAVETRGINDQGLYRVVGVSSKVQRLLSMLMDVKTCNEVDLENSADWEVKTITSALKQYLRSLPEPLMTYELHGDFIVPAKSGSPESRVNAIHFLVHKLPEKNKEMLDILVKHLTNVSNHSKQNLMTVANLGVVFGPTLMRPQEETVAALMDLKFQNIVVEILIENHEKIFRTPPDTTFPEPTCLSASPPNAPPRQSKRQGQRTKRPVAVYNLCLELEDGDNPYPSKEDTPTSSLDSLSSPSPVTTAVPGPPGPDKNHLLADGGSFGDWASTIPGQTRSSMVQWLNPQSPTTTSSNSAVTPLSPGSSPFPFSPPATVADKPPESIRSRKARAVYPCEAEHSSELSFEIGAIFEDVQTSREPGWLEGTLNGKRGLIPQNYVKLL

T4: GFP-VAPA ΔMSP (human) (UniProt Q9P0L0)
T4 sequence: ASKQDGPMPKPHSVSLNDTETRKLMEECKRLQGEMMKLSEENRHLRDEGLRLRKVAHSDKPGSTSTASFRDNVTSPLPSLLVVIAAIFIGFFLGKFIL

T5: GRAF1b-GFP (human) (UniProt Q9UNA1)
T5 sequence: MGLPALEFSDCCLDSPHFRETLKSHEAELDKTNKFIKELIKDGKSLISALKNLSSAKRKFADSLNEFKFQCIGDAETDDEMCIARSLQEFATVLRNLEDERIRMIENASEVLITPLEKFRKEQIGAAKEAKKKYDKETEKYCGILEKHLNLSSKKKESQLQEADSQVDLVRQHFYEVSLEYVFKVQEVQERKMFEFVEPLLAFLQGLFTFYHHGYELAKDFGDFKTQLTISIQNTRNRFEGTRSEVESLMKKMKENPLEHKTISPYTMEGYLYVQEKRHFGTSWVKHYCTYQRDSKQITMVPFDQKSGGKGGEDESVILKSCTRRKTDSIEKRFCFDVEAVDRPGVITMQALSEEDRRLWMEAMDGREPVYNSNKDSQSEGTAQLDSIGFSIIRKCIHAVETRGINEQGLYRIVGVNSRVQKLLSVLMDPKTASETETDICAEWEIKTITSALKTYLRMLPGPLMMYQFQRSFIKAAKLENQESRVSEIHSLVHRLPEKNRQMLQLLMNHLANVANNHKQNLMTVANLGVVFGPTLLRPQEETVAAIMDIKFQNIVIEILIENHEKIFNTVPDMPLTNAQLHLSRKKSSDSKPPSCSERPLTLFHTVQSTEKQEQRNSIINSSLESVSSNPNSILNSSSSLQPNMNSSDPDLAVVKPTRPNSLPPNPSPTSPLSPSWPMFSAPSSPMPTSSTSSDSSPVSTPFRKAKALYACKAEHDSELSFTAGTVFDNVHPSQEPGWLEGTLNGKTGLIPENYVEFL

T6: GST–MICAL1 ΔN (human) (UniProt Q8TDZ2)
T6 sequence: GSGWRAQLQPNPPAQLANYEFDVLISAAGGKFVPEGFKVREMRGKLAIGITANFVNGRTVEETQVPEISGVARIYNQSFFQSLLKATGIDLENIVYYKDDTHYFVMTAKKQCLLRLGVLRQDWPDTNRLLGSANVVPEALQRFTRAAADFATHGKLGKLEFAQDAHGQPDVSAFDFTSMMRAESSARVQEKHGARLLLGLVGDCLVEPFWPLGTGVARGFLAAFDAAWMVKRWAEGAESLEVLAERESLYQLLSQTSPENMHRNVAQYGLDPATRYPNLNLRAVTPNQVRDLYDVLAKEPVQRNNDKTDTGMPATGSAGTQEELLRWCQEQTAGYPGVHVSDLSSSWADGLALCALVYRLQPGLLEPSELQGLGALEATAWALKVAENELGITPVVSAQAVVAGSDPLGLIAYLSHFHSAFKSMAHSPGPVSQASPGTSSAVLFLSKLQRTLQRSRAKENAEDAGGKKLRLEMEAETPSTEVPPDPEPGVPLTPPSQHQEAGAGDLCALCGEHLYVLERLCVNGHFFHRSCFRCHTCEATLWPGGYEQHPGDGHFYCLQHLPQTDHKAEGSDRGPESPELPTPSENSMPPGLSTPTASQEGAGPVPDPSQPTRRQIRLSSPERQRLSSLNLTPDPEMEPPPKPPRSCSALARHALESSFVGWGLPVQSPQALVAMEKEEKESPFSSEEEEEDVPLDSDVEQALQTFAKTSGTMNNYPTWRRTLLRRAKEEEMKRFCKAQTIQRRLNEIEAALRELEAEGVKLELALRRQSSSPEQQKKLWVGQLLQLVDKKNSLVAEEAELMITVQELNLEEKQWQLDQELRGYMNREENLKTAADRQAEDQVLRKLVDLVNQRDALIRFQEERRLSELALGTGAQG

B1: myc-WDR44 (protein, UniProt Q5JSH3 1-913)
chain: MASESDTEEFYDAPEDVHLGGGYPVGSPGKVGLSTFKETENTAYKVGNESPVQELKQDVSKKIIESIIEESQKVLQLEDDSLDSKGKELSDQATASPIVARTDLSNIPGLLAIDQVLPEESQKAESQNTFEETELELKKCFPSDETCEKPVDETTKLTQTSSTEQLNVLETETEVLNKEAVEVKGGGDVLEPVSSDSLSTKDFAAVEEVAPAKPPRHLTPEPDIVASTKKPVPARPPPPTNFPPPRPPPPSRPAPPPRKRKSELEFETLKTPDIDVPKENITSDSLLTASMASESTVKDSQPSLDLASATSGDKIVTAQENGKAPDGQTVAGEVMGPQRPRSNSGRELTDEEILASVMIKNLDTGEEIPLSLAEEKLPTGINPLTLHIMRRTKEYVSNDAAQSDDEEKLQSQPTDTDGGRLKQKTTQLKKFLGKSVKRAKHLAEEYGERAINKVKSVRDEVFHTDQDDPSSSDDEGMPYTRPVKFKAAHGFKGPYDFDQIKVVQDLSGEHMGAVWTMKFSHCGRLLASAGQDNVVRIWALKNAFDYFNNMRMKYNTEGRVSPSPSQESLSSSKSDTDTGVCSGTDEDPDDKNAPFRQRPFCKYKGHTADLLDLSWSKNYFLLSSSMDKTVRLWHISRRECLCCFQHIDFVTAIAFHPRDDRYFLSGSLDGKLRLWNIPDKKVALWNEVDGQTKLITAANFCQNGKYAVIGTYDGRCIFYDTEHLKYHTQIHVRSTRGRNKVGRKITGIEPLPGENKILVTSNDSRIRLYDLRDLSLSMKYKGYVNSSSQIKASFSHDFTYLVSGSEDKYVYIWSTYHDLSKFTSVRRDRNDFWEGIKAHNAVVTSAIFAPNPSLMLSLDVQSEKSEGNEKSEDAEVLDATPSGIMKTDNTEVLLSADFTGAIKVFVNKRKNVS
B2: GRAF2 SH3 (released from GST by Thrombin) (domain or fragment, human, UniProt A1A4S6 718-786, looked up)
chain: ATVADKPPESIRSRKARAVYPCEAEHSSELSFEIGAIFEDVQTSREPGWLEGTLNGKRGLIPQNYVKLL
notes: SH3 domain construct, aa 718–786 of human GRAF2; same construct as m2 with GST cut off; source: E. coli BL21(DE3) pLysS; released from GST-GRAF2 SH3 beads with Thrombin; not shown: GST, N-terminal, cleaved

Tests used:
GFP-VAPA DD (human) = target: T1, GFP-VAPA DD (human); experiment: co-IP; transfected 293T, IP with α-GFP and Protein G Sepharose; 20 mM Hepes pH 7.4, 150 mM NaCl, 2 mM EDTA, 1% IGEPAL CA-630; Western blot
GFP-Rab11a S25N (human) = GFP-Rab11a S25N (human) (UniProt P62491); experiment: as above
GFP-Rab11a (human) = GFP-Rab11a (human) (UniProt P62491); experiment: as above
GFP-Rab8a (canine) = GFP-Rab8a (canine) (UniProt P61007); experiment: as above
GFP-VAPA (human) = target: T2, GFP-VAPA (human); experiment: as above
GRAF2-GFP (human) = target: T3, GRAF2-GFP (human); experiment: as above
GFP-Rab8b (human) = GFP-Rab8b (human) (UniProt Q92930); experiment: as above
GFP-VAPB (human) = GFP-VAPB (human) (UniProt O95292); experiment: as above
GFP-Rab11a Q70L (human) = GFP-Rab11a Q70L (human) (UniProt P62491); experiment: as above
GFP-VAPA ΔMSP (human) = target: T4, GFP-VAPA ΔMSP (human); experiment: as above
GRAF1b-GFP (human) = target: T5, GRAF1b-GFP (human); experiment: as above
GFP-Rab10 (human) = GFP-Rab10 (human) (UniProt P61026); experiment: as above
GST–MICAL1 ΔN (human) = target: T6, GST–MICAL1 ΔN (human); experiment: pull-down; in vitro: GST-tagged WDR44 or MICAL1 domains on glutathione sepharose beads with an equal amount of Thrombin-released GRAF2 SH3, 30 min 4°C, washed in bacterial lysis buffer (20 mM Hepes pH 7.4, 1 mM DTT, NaCl); Coomassie staining; both purified

binding (GFP-VAPA DD (human)) | binding (GFP-Rab11a S25N (human)) | binding (GFP-Rab11a (human)) | binding (GFP-Rab8a (canine)) | binding (GFP-VAPA (human)) | binding (GRAF2-GFP (human)) | binding (GFP-Rab8b (human)) | binding (GFP-VAPB (human)) | binding (GFP-Rab11a Q70L (human)) | binding (GFP-VAPA ΔMSP (human)) | binding (GRAF1b-GFP (human)) | binding (GFP-Rab10 (human)) | binding (GST–MICAL1 ΔN (human)) | Binder
no binding | no binding | binds | no binding | binds | binds | no binding | binds | binds | no binding | binds | no binding |  | B1
 |  |  |  |  |  |  |  |  |  |  |  | no binding | B2
